# Experimental data taken from publication doi:10.1101/2023.07.10.548302.
# No constants are given. Whether binding was seen depends on the method and setting. In cells and extracts the contact can be indirect. Some binding calls cover weakened binding; strength is not graded here. For part of these data: Where a sequence is shown, tags or fusion partners need not be part of it.
# T1: atypical protein kinase C (aPKC) (Drosophila (endogenous in larval tissues)) (UniProt A1Z9X0)
# T1 sequence: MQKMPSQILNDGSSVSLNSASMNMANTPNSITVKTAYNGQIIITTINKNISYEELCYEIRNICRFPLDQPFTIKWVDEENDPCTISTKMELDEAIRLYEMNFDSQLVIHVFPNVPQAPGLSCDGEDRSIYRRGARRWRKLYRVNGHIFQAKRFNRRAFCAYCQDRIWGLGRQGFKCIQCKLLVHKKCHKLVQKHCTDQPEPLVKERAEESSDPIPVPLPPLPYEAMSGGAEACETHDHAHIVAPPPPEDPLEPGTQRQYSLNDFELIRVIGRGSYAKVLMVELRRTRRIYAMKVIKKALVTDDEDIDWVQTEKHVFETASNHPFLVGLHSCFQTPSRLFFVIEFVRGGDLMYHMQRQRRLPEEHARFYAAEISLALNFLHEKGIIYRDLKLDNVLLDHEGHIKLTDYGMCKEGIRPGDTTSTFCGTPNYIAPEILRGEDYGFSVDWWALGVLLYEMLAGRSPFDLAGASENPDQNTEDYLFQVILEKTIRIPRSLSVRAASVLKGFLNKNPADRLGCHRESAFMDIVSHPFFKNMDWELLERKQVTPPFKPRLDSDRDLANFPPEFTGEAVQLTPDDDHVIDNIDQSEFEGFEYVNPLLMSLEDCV
# T2: Git-RFP (Drosophila) (UniProt Q95RG8)
# T2 sequence: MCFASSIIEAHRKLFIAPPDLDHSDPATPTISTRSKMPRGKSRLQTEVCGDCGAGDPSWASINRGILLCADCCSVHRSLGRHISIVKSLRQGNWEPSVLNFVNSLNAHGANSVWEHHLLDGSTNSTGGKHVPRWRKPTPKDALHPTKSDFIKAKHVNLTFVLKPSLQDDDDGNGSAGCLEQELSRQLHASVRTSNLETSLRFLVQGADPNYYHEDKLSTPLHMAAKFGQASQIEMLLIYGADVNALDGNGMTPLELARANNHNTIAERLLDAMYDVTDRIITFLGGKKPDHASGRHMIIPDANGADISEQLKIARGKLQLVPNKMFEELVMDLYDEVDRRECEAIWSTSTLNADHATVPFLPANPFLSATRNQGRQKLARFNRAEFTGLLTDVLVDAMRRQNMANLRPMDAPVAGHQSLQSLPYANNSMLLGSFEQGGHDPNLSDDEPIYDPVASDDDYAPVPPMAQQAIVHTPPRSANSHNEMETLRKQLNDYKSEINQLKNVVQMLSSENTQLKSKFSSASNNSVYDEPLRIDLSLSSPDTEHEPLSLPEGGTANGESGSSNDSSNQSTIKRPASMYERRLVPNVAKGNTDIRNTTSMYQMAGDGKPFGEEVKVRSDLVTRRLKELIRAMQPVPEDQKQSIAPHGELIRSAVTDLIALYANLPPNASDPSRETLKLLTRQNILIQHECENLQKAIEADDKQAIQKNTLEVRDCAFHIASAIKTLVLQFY
# T3: Vap33 (endogenous, larval tissues) (Drosophila (endogenous in larval tissues)) (UniProt Q9W4N8)
# T3 sequence: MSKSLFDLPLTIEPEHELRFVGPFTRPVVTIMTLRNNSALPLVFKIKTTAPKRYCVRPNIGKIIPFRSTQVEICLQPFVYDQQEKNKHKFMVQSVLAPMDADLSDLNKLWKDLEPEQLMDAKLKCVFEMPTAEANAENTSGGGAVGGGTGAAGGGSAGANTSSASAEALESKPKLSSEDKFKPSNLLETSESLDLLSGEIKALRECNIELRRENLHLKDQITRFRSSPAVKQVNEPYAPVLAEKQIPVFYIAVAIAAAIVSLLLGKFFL
# What was measured:
# Test in all cases: proximity ligation
# [1] = target: T1, atypical protein kinase C (aPKC) (Drosophila (endogenous in larval tissues))
# Git-RFP (Drosophila) = target: T2, Git-RFP (Drosophila)
# [2] = target: T3, Vap33 (endogenous, larval tissues) (Drosophila (endogenous in larval tissues))
Binder,binding [1],binding (Git-RFP (Drosophila)),binding [2]
"Lgl-GFP (endogenously GFP-tagged Lgl) (protein, UniProt P08111 1-1161) MLKFIRGKGQQPSADRHRLQKDLFAYRKTAQHGFPHKPSALAYDPVLKLMAIGTQTGALKVFGQPGVELYGQHTLLNNSASELNVQLLEWVYGTGRILSLTAANQLILWEPVGATLLPIKTLPFDGKLKKVSSLCCSLSKDLLWIGTEGGNIYQLDLHTFTIKEPVIYHDVVLEQVPPAYKLNPGAIESIRQLPNSPSKLLVAYNRGLCVLWDFESASVQRAYIAPGHGQSVGLTVNFEGSEFTWYHADGSYATWSIDNPEPPSNVNYVPYGPDPCKSINRLYKGKRRSNDVIVFSGGMPRSAYGDHNCVSVHASDGHKVCLDFTSKVIDFFVTFENNRDVAEVLVVLLEEELCAYDLTDPNICAIKAPYLHSVHASAVTCNYLASEVVQSVYESILRAGDEQDIDYSNISWPITGGTLPDNLEESVEEDATKLYEILLTGHEDGSVKFWDCTGVLLKPIYNFKTSSIFGSESDFRDDAAADMSAEQVDEGEPPFRKSGLFDPYSDDPRLAVKKIAFCPKTGQLIVGGTAGQIVIADFIDLPEKVSLKYISMNLVSDRDGFVWKGHDQLNVRSNLLDGEAIPTTERGVNISGVLQVLPPASITCMALEASWGLVSGGTAHGLVLFDFKNFVPVFHRCTLNPNDLTGAGEQLSRRKSFKKSLRESFRKLRKGRSTRTNQSNQVPTTLEARPVERQIEARCADDGLGSMVRCLLFAKTYVTNVNITSPTLWSATNASTVSVFLLHLPPAQTAATAVPSASGNAPPHMPRRISAQLAKEIQLKHRAPVVGISIFDQAGSPVDQLNAGENGSPPHRVLIASEEQFKVFSLPQLKPINKYKLTANEGARIRRIHFGSFSCRISPETLQSMHGCSPTKSTRSHGDGEADPNISGSLAVSRGDVYNETALICLTNMGDIMVLSVPELKRQLNAAAVRREDINGVSSLCFTNSGEALYMMSSSELQRIALATSRVVQPTGVVPVEPLENEESVLEENDAENNKETYACDEVVNTYEIKNPSGISICTRPAEENVGRNSVQQVNGVNISNSPNQANETISSSIGDITVDSVRDHLNMTTTTLCSINTEETIGRLSVLSTQTNKASTTVNMSEIPNINISNLEDLESKRNTTETSTSSVVIKSIITNISHEKTNGDNKIGTPKTAPEESQF",binds,binds,–
"Git-RFP (protein, UniProt Q95RG8 1-731) MCFASSIIEAHRKLFIAPPDLDHSDPATPTISTRSKMPRGKSRLQTEVCGDCGAGDPSWASINRGILLCADCCSVHRSLGRHISIVKSLRQGNWEPSVLNFVNSLNAHGANSVWEHHLLDGSTNSTGGKHVPRWRKPTPKDALHPTKSDFIKAKHVNLTFVLKPSLQDDDDGNGSAGCLEQELSRQLHASVRTSNLETSLRFLVQGADPNYYHEDKLSTPLHMAAKFGQASQIEMLLIYGADVNALDGNGMTPLELARANNHNTIAERLLDAMYDVTDRIITFLGGKKPDHASGRHMIIPDANGADISEQLKIARGKLQLVPNKMFEELVMDLYDEVDRRECEAIWSTSTLNADHATVPFLPANPFLSATRNQGRQKLARFNRAEFTGLLTDVLVDAMRRQNMANLRPMDAPVAGHQSLQSLPYANNSMLLGSFEQGGHDPNLSDDEPIYDPVASDDDYAPVPPMAQQAIVHTPPRSANSHNEMETLRKQLNDYKSEINQLKNVVQMLSSENTQLKSKFSSASNNSVYDEPLRIDLSLSSPDTEHEPLSLPEGGTANGESGSSNDSSNQSTIKRPASMYERRLVPNVAKGNTDIRNTTSMYQMAGDGKPFGEEVKVRSDLVTRRLKELIRAMQPVPEDQKQSIAPHGELIRSAVTDLIALYANLPPNASDPSRETLKLLTRQNILIQHECENLQKAIEADDKQAIQKNTLEVRDCAFHIASAIKTLVLQFY",–,–,binds
